Test: On surface reconstitution of lipid membranes: deposition of octylglucoside/lipid mixed micelles on sensor chip, SPR (BIACORE)
Details: for Lipid deposition level Relative POPC (%): at optimal octylglucoside/lipid ratio, Pioneer Chip L1; for Optimal detergent/lipid ratio: octylglucoside, CMC not subtracted from the octylglucoside concentration

| SMILES | Lipid deposition level Relative POPC (%) | Optimal detergent/lipid ratio | optimum deposition level (Pioneer Chip L1, mixed micelles with octylglucoside) | lipid deposited (reference flow cell with unmodified Pioneer Chip L1-surface, 3.3 mM POPC and 25 mM octylglucoside) | POPC deposited (rhodopsin-immobilized flow cell, 2 min injection of 3.3 mM POPC and 25 mM octylglucoside) |
| --- | --- | --- | --- | --- | --- |
| CCCCCCCC/C=C\CCCCCCCC(=O)OC[C@H](COP(=O)([O-])OCC[N+](C)(C)C)OC(=O)CCCCCCC/C=C\CCCCCCCC [DOPC, di-1,2-oleoyl-SN-phosphatidylcholine] | 95% | 7.5 | – | – | – |
| CCCCCCCC/C=C\CCCCCCCC(=O)O[C@H](COC(=O)CCCCCCCCCCCCCCC)COP(=O)([O-])OCC[N+](C)(C)C [POPC, 1-Palmitoyl-2-oleoyl-phosphatidylcholine] | 100% | 7.3 | about 5000 RU | about 5000 RU | Around 4500 RU |

Reference: patent US20020182717A1, “Method of preparing supported lipid film membranes and use thereof” (Biacore AB, priority 2001, published 2002)
